Assay results published in paper PMC10756089.
No constants are given. Whether binding was seen depends on the method and setting. In cells and extracts the contact can be indirect. Some binding calls cover weakened binding; strength is not graded here.

Sequences of proteins named here, by UniProt entry; tags and fusion partners are left off. A change or cut given only in a name is not applied to a line headed by its entry. Residues count along the entry.
UniProt Q9UNE7: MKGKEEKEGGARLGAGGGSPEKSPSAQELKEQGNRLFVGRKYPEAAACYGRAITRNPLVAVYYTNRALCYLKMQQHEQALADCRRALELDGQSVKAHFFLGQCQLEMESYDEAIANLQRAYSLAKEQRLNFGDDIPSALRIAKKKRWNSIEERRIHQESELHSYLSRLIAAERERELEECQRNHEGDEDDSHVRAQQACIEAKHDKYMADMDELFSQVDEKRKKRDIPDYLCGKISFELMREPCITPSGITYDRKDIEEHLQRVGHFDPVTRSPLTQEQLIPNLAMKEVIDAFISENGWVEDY
UniProt P24062, residues 742-1370: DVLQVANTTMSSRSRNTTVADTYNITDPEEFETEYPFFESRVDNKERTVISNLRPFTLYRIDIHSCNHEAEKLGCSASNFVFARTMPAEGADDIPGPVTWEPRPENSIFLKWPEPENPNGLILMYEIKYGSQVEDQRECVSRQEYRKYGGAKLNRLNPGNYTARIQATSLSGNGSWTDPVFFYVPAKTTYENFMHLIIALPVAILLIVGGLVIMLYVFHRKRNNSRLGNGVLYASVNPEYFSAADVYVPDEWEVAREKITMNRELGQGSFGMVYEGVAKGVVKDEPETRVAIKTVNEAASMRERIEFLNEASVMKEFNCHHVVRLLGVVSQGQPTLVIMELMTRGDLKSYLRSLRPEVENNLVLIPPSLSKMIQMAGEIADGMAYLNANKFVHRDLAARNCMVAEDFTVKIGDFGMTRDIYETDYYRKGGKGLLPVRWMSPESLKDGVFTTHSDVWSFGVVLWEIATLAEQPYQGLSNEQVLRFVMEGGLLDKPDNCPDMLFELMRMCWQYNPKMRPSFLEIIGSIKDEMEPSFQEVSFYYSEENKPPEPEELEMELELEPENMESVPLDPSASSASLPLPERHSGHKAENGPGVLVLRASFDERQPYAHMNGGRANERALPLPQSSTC

Key:
[1] = target: HA-CHIP wild-type (carboxyl-terminus of Hsp70 interacting protein) (UniProt Q9UNE7); assay: co-IP; another co-IP in rADSC lysate with CHIP overexpression (Supplementary Figure 1E); the methods name an anti-CHIP antibody, protein G magnetic beads, overnight at 4°C
[2] = target: HA-CHIP-K30A (TPR mutant) (UniProt Q9UNE7); assay: co-IP; rADSCs transfected for 24 h with HA-vector, HA-CHIP wild-type or HA-CHIP-K30A; lysate in 20 mM Tris-HCl pH 7.5, 1% NP-40, 150 mM NaCl, 1 mM EDTA; 400 ug protein; precipitated with anti-HA antibody (results), protein G magnetic beads, overnight at 4°C
[3] = target: HA-CHIP wild-type (carboxyl-terminus of Hsp70 interacting protein) (UniProt Q9UNE7); assay: as above

- binding [1]: binds
- binding [2]: no binding
- binding [3]: binds
Substance: IGF1Rβ (beta subunit of the insulin-like growth factor-1 receptor) (from UniProt P24062 742-1370)
